These are yes or no findings as the source states them, for the method shown. Some binding calls cover weakened binding; strength is not graded here. Tags and fused reporters may be left off the sequences shown.
How the values were obtained:
[1] = target: T1, FLAG-tagged SRSF3, P84103; experiment: pull-down; settings: remark: other sources report otherwise
T1 chain: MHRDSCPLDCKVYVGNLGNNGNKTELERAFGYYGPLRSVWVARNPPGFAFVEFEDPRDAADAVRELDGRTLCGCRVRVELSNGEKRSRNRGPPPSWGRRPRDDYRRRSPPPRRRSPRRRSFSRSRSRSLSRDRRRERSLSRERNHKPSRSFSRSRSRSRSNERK

GST-tagged SRSF3, P84103 = target: T2, GST-tagged SRSF3, P84103; experiment: pull-down; settings: remark: other sources report otherwise
T2 chain: T1 chain

binding [1]: binds
binding (GST-tagged SRSF3, P84103): binds
B1: HIS-tagged Aurora-A, O14965 1-403 (enzyme)
chain: MDRSKENCISGPVKATAPVGGPKRVLVTQQFPCQNPLPVNSGQAQRVLCPSNSSQRIPLQAQKLVSSHKPVQNQKQKQLQATSVPHPVSRPLNNTQKSKQPLPSAPENNPEEELASKQKNEESKKRQWALEDFEIGRPLGKGKFGNVYLAREKQSKFILALKVLFKAQLEKAGVEHQLRREVEIQSHLRHPNILRLYGYFHDATRVYLILEYAPLGTVYRELQKLSKFDEQRTATYITELANALSYCHSKRVIHRDIKPENLLLGSAGELKIADFGWSVHAPSSRRTTLCGTLDYLPPEMIEGRMHDEKVDLWSLGVLCYEFLVGKPPFEANTYQETYKRISRVEFTFPDFVTEGARDLISRLLKHNPSQRPMLREVLEHPWITANSSKPSNCQNKESASKQS

Source: doi:10.1101/2020.11.04.368498
